Measurements: patent US20240325490A1 (RESEARCH AND BUSINESS FOUNDATION SUNGKYUNKWAN UNIVERSITY, published 2024)
Results are given in words; binding and its absence hold for the method and conditions named. Some results given as binding are weak or reduced against the parent protein; the word gives no strength.

What was measured:
[1] = biological target: P62 (P62/SQSTM1) adaptor protein (UniProt Q13501); assay: fragment binding assay, figure legend (FIG. 6L)
[2] = biological target: P62 (P62/SQSTM1) adaptor protein (UniProt Q13501); assay: fragment binding assay (FIG. 6L); method not described

B1: EBP1 280-394 amino acids fragment (protein, UniProt Q9UQ80 280-394, looked up)
chain: LRAFEDEKKARMGVVECAKHELLQPFNVLYEKEGEFVAQFKFTVLLMPNGPMRITSGPFEPDLYKSEMEVQDAELKALLQSSASRKTQKKKKKKASKTAENATSGETLEENEAGD
**Q.** With B1 as the binder, how does the binding [1] read?
**A.** binds

**Q.** What about the binding [2] of the same binder?
**A.** binds
